# From the supplement of paper PMC8728848
# This is one part of the list.
# Legend:
# Experiment in all cases: glycan array binding signal (z-score within array); higher = stronger binding
# Conditions in all cases: glycan notation: IUPAC condensed, linker removed
# [1] = target: Gal(b1-3)GalNAc(b1-3)Gal
# Procedure, shortened: (§1)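 Columns mapping to the same glycan were averaged after glycan names were converted to IUPAC-condensed notation. The data come from 3228 arrays in the Consortium for Functional Glycomics database, limited to those with an available protein sequence. Binding is reported as a within-array Z-score averaged across arrays of one protein sequence and across linkers.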
# [2] = target: Gal(b1-3)GalNAc(b1-3)Gal(a1-4)Gal(b1-4)Glc
# Procedure, shortened: as §1
# [3] = target: Gal(b1-3)GalNAc(b1-4)Gal(b1-4)Glc
# Procedure, shortened: as §1
# [4] = target: Gal(b1-3)GalNAc(b1-4)[Neu5Ac(a2-3)]Gal(b1-4)Glc
# Procedure, shortened: as §1
# [5] = target: Gal(b1-3)GlcNAc
# Procedure, shortened: as §1
# [6] = target: Gal(b1-3)GlcNAc(a1-3)Gal(b1-4)GlcNAc
# Procedure, shortened: as §1
# [7] = target: Gal(b1-3)GlcNAc(a1-6)Gal(b1-4)GlcNAc
# Procedure, shortened: as §1
# [8] = target: Gal(b1-3)GlcNAc(b1-2)Man
# Procedure, shortened: as §1
# [9] = target: Gal(b1-3)GlcNAc(b1-2)Man(a1-3)[Gal(b1-3)GlcNAc(b1-2)Man(a1-6)]Man(b1-4)GlcNAc(b1-4)GlcNAc
# Procedure, shortened: as §1
# [10] = target: Gal(b1-3)GlcNAc(b1-2)Man(a1-3)[Gal(b1-3)GlcNAc(b1-2)Man(a1-6)]Man(b1-4)GlcNAc(b1-4)[Fuc(a1-6)]GlcNAc
# Procedure, shortened: as §1
# [11] = target: Gal(b1-3)GlcNAc(b1-2)Man(a1-3)[GlcNAc(b1-4)][Gal(b1-3)GlcNAc(b1-2)Man(a1-6)]Man(b1-4)GlcNAc(b1-4)GlcNAc
# Procedure, shortened: as §1
# [12] = target: Gal(b1-3)GlcNAc(b1-2)[Gal(b1-3)GlcNAc(b1-6)]Man(a1-6)[Gal(b1-3)GlcNAc(b1-2)Man(a1-3)]Man(b1-4)GlcNAc(b1-4)GlcNAc
# Procedure, shortened: as §1
# [13] = target: Gal(b1-3)GlcNAc(b1-3)Gal(b1-3)GlcNAc
# Procedure, shortened: as §1
# [14] = target: Gal(b1-3)GlcNAc(b1-3)Gal(b1-4)Glc
# Procedure, shortened: as §1
# [15] = target: Gal(b1-3)GlcNAc(b1-3)Gal(b1-4)GlcNAc
# Procedure, shortened: as §1
# [16] = target: Gal(b1-3)GlcNAc(b1-3)Gal(b1-4)GlcNAc(b1-2)Man(a1-3)[Gal(b1-3)GlcNAc(b1-3)Gal(b1-4)GlcNAc(b1-2)Man(a1-6)]Man(b1-4)GlcNAc(b1-4)GlcNAc
# Procedure, shortened: as §1
# [17] = target: Gal(b1-3)GlcNAc(b1-3)Gal(b1-4)GlcNAc(b1-2)[Gal(b1-3)GlcNAc(b1-3)Gal(b1-4)GlcNAc(b1-6)]Man(a1-6)[Gal(b1-3)GlcNAc(b1-3)Gal(b1-4)GlcNAc(b1-2)Man(a1-3)]Man(b1-4)GlcNAc(b1-4)[Fuc(a1-6)]GlcNAc
# Procedure, shortened: as §1
# [18] = target: Gal(b1-3)GlcNAc(b1-3)Gal(b1-4)GlcNAc(b1-3)Gal(b1-4)GlcNAc(b1-2)[Gal(b1-3)GlcNAc(b1-3)Gal(b1-4)GlcNAc(b1-3)Gal(b1-4)GlcNAc(b1-6)]Man(a1-6)[Gal(b1-3)GlcNAc(b1-3)Gal(b1-4)GlcNAc(b1-3)Gal(b1-4)GlcNAc(b1-2)Man(a1-3)]Man(b1-4)GlcNAc(b1-4)[Fuc(a1-6)]GlcNAc
# Procedure, shortened: as §1
# [19] = target: Gal(b1-3)GlcNAc(b1-3)Gal(b1-4)GlcNAc(b1-6)[Gal(b1-3)GlcNAc(b1-3)]Gal(b1-4)Glc
# Procedure, shortened: as §1
# [20] = target: Gal(b1-3)GlcNAc(b1-3)Gal(b1-4)[Fuc(a1-3)]GlcNAc
# Procedure, shortened: as §1
# [21] = target: Gal(b1-3)GlcNAc(b1-3)Gal(b1-4)[Fuc(a1-3)]GlcNAc(b1-6)[Gal(b1-3)GlcNAc(b1-3)]Gal(b1-4)Glc
# Procedure, shortened: as §1
# [22] = target: Gal(b1-3)GlcNAc(b1-3)GalNAc
# Procedure, shortened: as §1
# [23] = target: Gal(b1-3)GlcNAc(b1-6)Gal(b1-4)GlcNAc
# Procedure, shortened: as §1
# [24] = target: Gal(b1-3)GlcNAc(b1-6)GalNAc
# Procedure, shortened: as §1
# [25] = target: Gal(b1-3)GlcNAc(b1-6)[Gal(b1-3)]GalNAc
# Procedure, shortened: as §1
# [26] = target: Gal(b1-3)GlcNAc6S
# Procedure, shortened: as §1
# [27] = target: Gal(b1-3)[Fuc(a1-4)]GlcNAc
# Procedure, shortened: as §1
# [28] = target: Gal(b1-3)[Fuc(a1-4)]GlcNAc(b1-2)Man
# Procedure, shortened: as §1
# [29] = target: Gal(b1-3)[Fuc(a1-4)]GlcNAc(b1-2)Man(a1-3)[Gal(b1-3)[Fuc(a1-4)]GlcNAc(b1-2)Man(a1-6)]Man(b1-4)GlcNAc(b1-4)[Fuc(a1-6)]GlcNAc
# Procedure, shortened: as §1
# [30] = target: Gal(b1-3)[Fuc(a1-4)]GlcNAc(b1-3)Gal(b1-3)[Fuc(a1-4)]GlcNAc
# Procedure, shortened: as §1
# [31] = target: Gal(b1-3)[Fuc(a1-4)]GlcNAc(b1-3)Gal(b1-4)[Fuc(a1-3)]GlcNAc
# Procedure, shortened: as §1
# [32] = target: Gal(b1-3)[Fuc(a1-4)]GlcNAc(b1-6)GalNAc
# Procedure, shortened: as §1
# [33] = target: Gal(b1-3)[GlcNAc(b1-6)]GalNAc
# Procedure, shortened: as §1
# [34] = target: Gal(b1-3)[Neu5Ac(a2-6)]GalNAc
# Procedure, shortened: as §1
# [35] = target: Gal(b1-3)[Neu5Ac(a2-6)]GlcNAc(b1-4)Gal(b1-4)Glc
# Procedure, shortened: as §1
# [36] = target: Gal(b1-3)[Neu5Ac(b2-6)]GalNAc
# Procedure, shortened: as §1
# [37] = target: Gal(b1-4)Gal
# Procedure, shortened: as §1
# [38] = target: Gal(b1-4)GalNAc(a1-3)[Fuc(a1-2)]Gal(b1-4)GlcNAc
# Procedure, shortened: as §1
binder,measurement,setting,value
SP15308C-bot-338-23-338 (Bacteroides ovatus) (protein) DEWTDEQFKQLISFKTQPGGWGVTDVHVRYANSAKYTYNLPVLVSGSTDNTDDRLVSFSLRDDTLDILNFEKFGNRPELYFRELPQKYYSFPKELTIPAGQSHALLPIEFSLDGLDDSQKWALPLKVCEDANGTYAVNPRKYYRTAVLRPILFNEFSGRFSGSSLLGTMAGESDIKFSSTEIKLNVVTDSIVFFYAGQRTEDYEDRINYKVFLQFTGDKVDSKKDLYKMKIWAENEKLKFNSYSTPTYKVSSEMDATKTYLKHTYIVISDIDFDFVDYTSVPNYEIEYNMKGGLSVSRDLDTRKPDEDQGSDSKWW,glycan array binding signal (z-score),[1],-0.623
same,glycan array binding signal (z-score),[2],0.583
same,glycan array binding signal (z-score),[3],-0.1
same,glycan array binding signal (z-score),[4],0.31
same,glycan array binding signal (z-score),[5],-0.245
same,glycan array binding signal (z-score),[6],-0.096
same,glycan array binding signal (z-score),[7],0.802
same,glycan array binding signal (z-score),[8],0.037
same,glycan array binding signal (z-score),[9],0.401
same,glycan array binding signal (z-score),[10],-0.023
same,glycan array binding signal (z-score),[11],1.84
same,glycan array binding signal (z-score),[12],0.441
same,glycan array binding signal (z-score),[13],-0.548
same,glycan array binding signal (z-score),[14],-0.696
same,glycan array binding signal (z-score),[15],0.169
same,glycan array binding signal (z-score),[16],0.936
same,glycan array binding signal (z-score),[17],-0.208
same,glycan array binding signal (z-score),[18],3.59
same,glycan array binding signal (z-score),[19],-0.365
same,glycan array binding signal (z-score),[20],-0.366
same,glycan array binding signal (z-score),[21],-0.356
same,glycan array binding signal (z-score),[22],0.7
same,glycan array binding signal (z-score),[23],-0.411
same,glycan array binding signal (z-score),[24],-0.403
same,glycan array binding signal (z-score),[25],1.03
same,glycan array binding signal (z-score),[26],0.945
same,glycan array binding signal (z-score),[27],-0.153
same,glycan array binding signal (z-score),[28],0.097
same,glycan array binding signal (z-score),[29],1.6
same,glycan array binding signal (z-score),[30],-0.568
same,glycan array binding signal (z-score),[31],-0.138
same,glycan array binding signal (z-score),[32],-0.034
same,glycan array binding signal (z-score),[33],-0.421
same,glycan array binding signal (z-score),[34],-0.154
same,glycan array binding signal (z-score),[35],-0.312
same,glycan array binding signal (z-score),[36],-0.601
same,glycan array binding signal (z-score),[37],-0.46
same,glycan array binding signal (z-score),[38],-0.038

# Reformatted: entries from further up.
binder	measurement	setting	value
SP15308C-bot-338-23-338 (Bacteroides ovatus) (protein) DEWTDEQFKQLISFKTQPGGWGVTDVHVRYANSAKYTYNLPVLVSGSTDNTDDRLVSFSLRDDTLDILNFEKFGNRPELYFRELPQKYYSFPKELTIPAGQSHALLPIEFSLDGLDDSQKWALPLKVCEDANGTYAVNPRKYYRTAVLRPILFNEFSGRFSGSSLLGTMAGESDIKFSSTEIKLNVVTDSIVFFYAGQRTEDYEDRINYKVFLQFTGDKVDSKKDLYKMKIWAENEKLKFNSYSTPTYKVSSEMDATKTYLKHTYIVISDIDFDFVDYTSVPNYEIEYNMKGGLSVSRDLDTRKPDEDQGSDSKWW	glycan array binding signal (z-score)	[32]	-0.034
same	glycan array binding signal (z-score)	[33]	-0.421
